According to publication PMC12592408:
No constants are given. Whether binding was seen depends on the method and setting. In cells and extracts the contact can be indirect.

Columns and labels:
[1] = biological target: T1, PipB2 (SPI-2 effector) (S. Typhimurium) (UniProt Q8ZMM8); assay: co-IP; HEK293T transfected with CIC-Myc (with RAB7-mCherry in Fig. 5f; CIC-deficient cells in Supplementary Fig. 11c), infected with S. Typhimurium expressing the tagged effector (MOI 20, 16 h); lysis in 20 mM Tris-HCl, 150 mM NaCl, 1 mM EDTA, 1% NP-40; immunoprecipitation with anti-HA agarose, 3 h, 4 °C; western blot
T1 sequence: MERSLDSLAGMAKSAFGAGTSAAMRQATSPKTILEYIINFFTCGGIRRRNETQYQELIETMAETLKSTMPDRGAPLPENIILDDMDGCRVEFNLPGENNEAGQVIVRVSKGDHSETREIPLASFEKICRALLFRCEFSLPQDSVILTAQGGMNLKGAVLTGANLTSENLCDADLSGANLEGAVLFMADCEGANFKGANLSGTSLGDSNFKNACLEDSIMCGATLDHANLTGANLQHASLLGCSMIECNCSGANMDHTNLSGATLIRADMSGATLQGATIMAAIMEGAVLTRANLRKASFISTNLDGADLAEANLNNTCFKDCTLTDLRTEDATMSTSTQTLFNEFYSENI

[2] = biological target: T2, SopD2 (SPI-2 effector) (S. Typhimurium) (UniProt Q8ZQC8); assay: as above
T2 sequence: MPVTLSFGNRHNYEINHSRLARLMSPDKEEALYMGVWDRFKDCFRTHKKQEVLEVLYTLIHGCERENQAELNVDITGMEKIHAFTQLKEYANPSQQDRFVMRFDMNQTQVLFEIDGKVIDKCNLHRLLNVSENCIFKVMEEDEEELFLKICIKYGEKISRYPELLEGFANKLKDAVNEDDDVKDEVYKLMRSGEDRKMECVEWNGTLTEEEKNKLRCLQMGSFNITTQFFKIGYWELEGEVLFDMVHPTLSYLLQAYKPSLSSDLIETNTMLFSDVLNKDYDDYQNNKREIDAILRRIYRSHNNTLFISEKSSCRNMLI

Myc-tagged CIC (mitochondrial citrate carrier, tricarboxylate carrier, encoded by SLC25A1), transiently expressed (from UniProt P53007 14-311)
binding [1]: no binding | binding [2]: no binding
